# Measurements taken from PMC4476799, “Englerin A Agonizes the TRPC4/C5 Cation Channels to Inhibit Tumor Cell Line Proliferation” (PLoS ONE, 2015).
# The source gives many values for each of these; only a part stands here.
# Test system: cancer cell lines from the cancer cell line encyclopedia (CCLE)
# Experiment: Cell line profiling (CLiP) proliferation experiment
# Format: cell-based
# Parameters: ACTIVITY_AREA: scale not given here; AMAX: unit not given here
# Description: Compound profiling experiment and data analysis was performed as previously described. Data was imported and plotted using the Tibco Spotfire DXP application. Lines were categorized as sensitive, intermediate and refractory as follows: Amax<-40 & Inflection Point <2 ~ Sensitive, Amax>-20 & Inflection Point >10 ~ Refractory, all else were called Intermediate. Cancer Cell line HG-U133 Plus 2 data was processed and normalized as described. […] Five sets of refractory cell lines were generated from the pool of refractory cell lines trying to match the lineage composition of the set of sensitive cell lines. The limma package was used as previously described to perform the statistical comparison.
# [1] = 697 (haematopoietic_and_lymphoid_tissue)
# [2] = CAL-54, kidney, renal_cell_carcinoma
# [3] = CMK-11-5 (haematopoietic_and_lymphoid_tissue)
# [4] = COLO 775 (haematopoietic_and_lymphoid_tissue)
smiles,measurement,setting,value
CC(C)[C@@]12C[C@@H](O)[C@@](C)(O1)[C@@H]1CC[C@@H](C)[C@H]1[C@@H]2OC(=O)/C=C/c1ccccc1 [Englerin B],ACTIVITY_AREA,22Rv1 (prostate),30.61
same,AMAX,22Rv1 (prostate),-53.2
same,RESPONSE,22Rv1 (prostate),INTERMEDIATE
same,ACTIVITY_AREA,[1],47.18
same,AMAX,[1],-80.98
same,RESPONSE,[1],INTERMEDIATE
same,ACTIVITY_AREA,769-P (kidney),13.6
same,AMAX,769-P (kidney),-49.16
same,RESPONSE,769-P (kidney),INTERMEDIATE
same,ACTIVITY_AREA,8305C (thyroid),19.13
same,AMAX,8305C (thyroid),-42.05
same,RESPONSE,8305C (thyroid),INTERMEDIATE
same,ACTIVITY_AREA,A4/Fuk cells,67.88
same,AMAX,A4/Fuk cells,-69.84
same,RESPONSE,A4/Fuk cells,INTERMEDIATE
same,ACTIVITY_AREA,A101D cells,15.59
same,AMAX,A101D cells,-37.08
same,RESPONSE,A101D cells,INTERMEDIATE
same,ACTIVITY_AREA,A549 cells,37.23
same,AMAX,A549 cells,-58.53
same,RESPONSE,A549 cells,INTERMEDIATE
same,ACTIVITY_AREA,A2058 cells,56.89
same,AMAX,A2058 cells,-70.85
same,RESPONSE,A2058 cells,INTERMEDIATE
same,ACTIVITY_AREA,A2780 cells,23.16
same,AMAX,A2780 cells,-68.66
same,RESPONSE,A2780 cells,INTERMEDIATE
same,ACTIVITY_AREA,A-253 cells,47.22
same,AMAX,A-253 cells,-88.59
same,RESPONSE,A-253 cells,INTERMEDIATE
same,ACTIVITY_AREA,A-375 cells,20.24
same,AMAX,A-375 cells,-2.69
same,RESPONSE,A-375 cells,REFRACTORY
same,ACTIVITY_AREA,A-673 cells,9.6
same,AMAX,A-673 cells,-13.83
same,RESPONSE,A-673 cells,REFRACTORY
same,ACTIVITY_AREA,ABC-1 cells,13.47
same,AMAX,ABC-1 cells,-42.78
same,RESPONSE,ABC-1 cells,INTERMEDIATE
same,ACTIVITY_AREA,ACC-MESO-1 cells,116.48
same,AMAX,ACC-MESO-1 cells,-48.31
same,RESPONSE,ACC-MESO-1 cells,INTERMEDIATE
same,ACTIVITY_AREA,ACHN cells,59.56
same,AMAX,ACHN cells,-29.85
same,RESPONSE,ACHN cells,INTERMEDIATE
same,ACTIVITY_AREA,AMO-1 cells,38.41
same,AMAX,AMO-1 cells,-82.44
same,RESPONSE,AMO-1 cells,INTERMEDIATE
same,ACTIVITY_AREA,AU565 cells,45.07
same,AMAX,AU565 cells,-69.47
same,RESPONSE,AU565 cells,INTERMEDIATE
same,ACTIVITY_AREA,BDCM cells,30.98
same,AMAX,BDCM cells,-76.17
same,RESPONSE,BDCM cells,INTERMEDIATE
same,ACTIVITY_AREA,BHY cells,30
same,AMAX,BHY cells,-53.57
same,RESPONSE,BHY cells,INTERMEDIATE
same,ACTIVITY_AREA,BICR 6 cells,60.16
same,AMAX,BICR 6 cells,-61.58
same,RESPONSE,BICR 6 cells,INTERMEDIATE
same,ACTIVITY_AREA,BICR 16 cells,117.1
same,AMAX,BICR 16 cells,-74.26
same,RESPONSE,BICR 16 cells,INTERMEDIATE
same,ACTIVITY_AREA,BICR 22 cells,28.9
same,AMAX,BICR 22 cells,-66.9
same,RESPONSE,BICR 22 cells,INTERMEDIATE
same,ACTIVITY_AREA,BL-41 cells,23.12
same,AMAX,BL-41 cells,-91.54
same,RESPONSE,BL-41 cells,INTERMEDIATE
same,ACTIVITY_AREA,BT-20 cells,21.1
same,AMAX,BT-20 cells,-41.63
same,RESPONSE,BT-20 cells,INTERMEDIATE
same,ACTIVITY_AREA,BV-173 cells,54.37
same,AMAX,BV-173 cells,-88.99
same,RESPONSE,BV-173 cells,INTERMEDIATE
same,ACTIVITY_AREA,BxPC-3 (pancreas),22.8
same,AMAX,BxPC-3 (pancreas),-60.21
same,RESPONSE,BxPC-3 (pancreas),INTERMEDIATE
same,ACTIVITY_AREA,C32 cells,19.38
same,AMAX,C32 cells,-36.76
same,RESPONSE,C32 cells,INTERMEDIATE
same,ACTIVITY_AREA,CAL-29 (urinary_tract),38.07
same,AMAX,CAL-29 (urinary_tract),-71.25
same,RESPONSE,CAL-29 (urinary_tract),INTERMEDIATE
same,ACTIVITY_AREA,CAL-51 cells,23.14
same,AMAX,CAL-51 cells,-39.24
same,RESPONSE,CAL-51 cells,INTERMEDIATE
same,ACTIVITY_AREA,[2],36.45
same,AMAX,[2],-46.52
same,RESPONSE,[2],INTERMEDIATE
same,ACTIVITY_AREA,CAL-54 cells,36.45
same,AMAX,CAL-54 cells,-46.52
same,RESPONSE,CAL-54 cells,INTERMEDIATE
same,ACTIVITY_AREA,"CAL-78, bone, dedifferentiated",32.55
same,AMAX,"CAL-78, bone, dedifferentiated",-32.34
same,RESPONSE,"CAL-78, bone, dedifferentiated",INTERMEDIATE
same,ACTIVITY_AREA,CAL-78 cells,32.55
same,AMAX,CAL-78 cells,-32.34
same,RESPONSE,CAL-78 cells,INTERMEDIATE
same,ACTIVITY_AREA,"CAL-85-1, breast, NS",10.29
same,AMAX,"CAL-85-1, breast, NS",-39.9
same,RESPONSE,"CAL-85-1, breast, NS",INTERMEDIATE
same,ACTIVITY_AREA,CAL-85-1 cells,10.29
same,AMAX,CAL-85-1 cells,-39.9
same,RESPONSE,CAL-85-1 cells,INTERMEDIATE
same,ACTIVITY_AREA,CAL-120 cells,23.97
same,AMAX,CAL-120 cells,-51.61
same,RESPONSE,CAL-120 cells,INTERMEDIATE
same,ACTIVITY_AREA,CAMA-1 (breast),21.9
same,AMAX,CAMA-1 (breast),-43.81
same,RESPONSE,CAMA-1 (breast),INTERMEDIATE
same,ACTIVITY_AREA,CAS-1 cells,8.27
same,AMAX,CAS-1 cells,-27.8
same,RESPONSE,CAS-1 cells,INTERMEDIATE
same,ACTIVITY_AREA,CCK-81 cells,19.43
same,AMAX,CCK-81 cells,-61.47
same,RESPONSE,CCK-81 cells,INTERMEDIATE
same,ACTIVITY_AREA,CCRF-CEM cells,12.38
same,AMAX,CCRF-CEM cells,-48.26
same,RESPONSE,CCRF-CEM cells,INTERMEDIATE
same,ACTIVITY_AREA,CFPAC-1 (pancreas),25.86
same,AMAX,CFPAC-1 (pancreas),-50.08
same,RESPONSE,CFPAC-1 (pancreas),INTERMEDIATE
same,ACTIVITY_AREA,CHL-1 cells,19.98
same,AMAX,CHL-1 cells,-60.11
same,RESPONSE,CHL-1 cells,INTERMEDIATE
same,ACTIVITY_AREA,CHP-212 cells,33.44
same,AMAX,CHP-212 cells,-55.99
same,RESPONSE,CHP-212 cells,INTERMEDIATE
same,ACTIVITY_AREA,CI-1 cells,19.7
same,AMAX,CI-1 cells,16.67
same,RESPONSE,CI-1 cells,REFRACTORY
same,ACTIVITY_AREA,CMK cells,61.63
same,AMAX,CMK cells,-8.06
same,RESPONSE,CMK cells,REFRACTORY
same,ACTIVITY_AREA,[3],101.26
same,AMAX,[3],-51.95
same,RESPONSE,[3],INTERMEDIATE
same,ACTIVITY_AREA,CML-T1 cells,42.33
same,AMAX,CML-T1 cells,-73.13
same,RESPONSE,CML-T1 cells,INTERMEDIATE
same,ACTIVITY_AREA,COLO 205 cells,33.02
same,AMAX,COLO 205 cells,-61.38
same,RESPONSE,COLO 205 cells,INTERMEDIATE
same,ACTIVITY_AREA,COLO 668 cells,28.83
same,AMAX,COLO 668 cells,-55.03
same,RESPONSE,COLO 668 cells,INTERMEDIATE
same,ACTIVITY_AREA,COLO 741 cells,12.88
same,AMAX,COLO 741 cells,-37.55
same,RESPONSE,COLO 741 cells,INTERMEDIATE
same,ACTIVITY_AREA,[4],59.22
same,AMAX,[4],-93.44
same,RESPONSE,[4],INTERMEDIATE
same,ACTIVITY_AREA,COLO 792 cells,11.82
same,AMAX,COLO 792 cells,-22.14
same,RESPONSE,COLO 792 cells,INTERMEDIATE
same,ACTIVITY_AREA,COLO 829 cells,31.7
same,AMAX,COLO 829 cells,-7.17
same,RESPONSE,COLO 829 cells,REFRACTORY
same,ACTIVITY_AREA,COLO-320 (large_intestine),102.29
same,AMAX,COLO-320 (large_intestine),-70.01
same,RESPONSE,COLO-320 (large_intestine),INTERMEDIATE
same,ACTIVITY_AREA,COLO-680N (oesophagus),26.11
same,AMAX,COLO-680N (oesophagus),-34.59
same,RESPONSE,COLO-680N (oesophagus),INTERMEDIATE
same,ACTIVITY_AREA,COLO-699 (lung),153.56
same,AMAX,COLO-699 (lung),-71.88
same,RESPONSE,COLO-699 (lung),INTERMEDIATE
same,ACTIVITY_AREA,COLO-704 cells,138.81
same,AMAX,COLO-704 cells,-63.22
same,RESPONSE,COLO-704 cells,INTERMEDIATE
same,ACTIVITY_AREA,COR-L23 (lung),32.4
